The target of this experiment is TorsinA-GFP (human) (UniProt O14656). As to the kind of experiment: co-IP.

By UniProt entry, the sequences of proteins in these tests, tags left out. Residues count along the entry.
UniProt O14656, 21-332: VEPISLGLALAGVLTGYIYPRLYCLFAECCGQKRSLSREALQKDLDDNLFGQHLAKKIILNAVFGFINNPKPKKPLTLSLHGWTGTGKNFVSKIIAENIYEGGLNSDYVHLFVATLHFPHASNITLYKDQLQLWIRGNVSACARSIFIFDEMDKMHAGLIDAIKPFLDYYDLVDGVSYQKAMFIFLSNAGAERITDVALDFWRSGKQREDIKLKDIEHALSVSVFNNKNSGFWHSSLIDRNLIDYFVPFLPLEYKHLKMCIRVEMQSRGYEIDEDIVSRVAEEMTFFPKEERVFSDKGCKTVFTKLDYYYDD
UniProt P39685, whole entry: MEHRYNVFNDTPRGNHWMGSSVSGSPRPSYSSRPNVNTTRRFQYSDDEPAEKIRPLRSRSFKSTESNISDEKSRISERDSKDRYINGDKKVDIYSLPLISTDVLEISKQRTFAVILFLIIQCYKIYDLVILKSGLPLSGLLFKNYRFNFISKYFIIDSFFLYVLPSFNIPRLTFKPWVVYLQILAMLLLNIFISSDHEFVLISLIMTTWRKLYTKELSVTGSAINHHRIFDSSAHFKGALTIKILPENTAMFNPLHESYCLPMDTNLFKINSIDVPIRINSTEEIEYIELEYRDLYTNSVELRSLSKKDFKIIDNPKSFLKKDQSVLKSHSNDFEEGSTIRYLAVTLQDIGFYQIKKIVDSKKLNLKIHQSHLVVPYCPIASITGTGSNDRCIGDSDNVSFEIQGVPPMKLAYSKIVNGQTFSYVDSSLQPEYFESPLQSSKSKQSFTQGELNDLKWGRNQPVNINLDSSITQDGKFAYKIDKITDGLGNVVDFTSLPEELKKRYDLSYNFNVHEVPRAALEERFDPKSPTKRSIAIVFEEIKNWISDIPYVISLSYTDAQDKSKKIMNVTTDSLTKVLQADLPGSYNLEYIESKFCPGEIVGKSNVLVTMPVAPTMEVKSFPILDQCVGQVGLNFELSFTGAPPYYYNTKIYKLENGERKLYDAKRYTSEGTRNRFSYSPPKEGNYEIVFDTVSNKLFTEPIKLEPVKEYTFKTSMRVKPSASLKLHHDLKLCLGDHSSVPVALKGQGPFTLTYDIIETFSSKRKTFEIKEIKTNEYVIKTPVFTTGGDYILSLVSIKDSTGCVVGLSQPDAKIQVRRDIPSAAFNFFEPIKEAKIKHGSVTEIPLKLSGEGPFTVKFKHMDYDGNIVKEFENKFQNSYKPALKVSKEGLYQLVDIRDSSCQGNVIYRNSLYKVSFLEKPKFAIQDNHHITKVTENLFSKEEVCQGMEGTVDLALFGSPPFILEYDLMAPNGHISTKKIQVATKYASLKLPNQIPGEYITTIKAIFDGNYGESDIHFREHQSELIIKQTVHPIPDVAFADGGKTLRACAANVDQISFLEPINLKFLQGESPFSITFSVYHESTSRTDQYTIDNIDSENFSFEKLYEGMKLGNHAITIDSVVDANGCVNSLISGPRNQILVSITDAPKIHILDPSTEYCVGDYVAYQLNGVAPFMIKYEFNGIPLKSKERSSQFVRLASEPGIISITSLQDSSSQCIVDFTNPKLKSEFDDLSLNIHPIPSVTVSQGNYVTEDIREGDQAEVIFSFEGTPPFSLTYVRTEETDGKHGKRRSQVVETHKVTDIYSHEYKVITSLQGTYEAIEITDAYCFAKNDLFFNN

Results are given in words; binding and its absence hold for the method and conditions named. Binding seen in cells or lysates may run through a third protein. Some binding calls cover weakened binding; strength is not graded here. Where a sequence is shown, tags or fusion partners need not be part of it.

As to Pom152 (from UniProt P39685 1-1337), the binding result is recorded as “binds”.

B1: Mps3-HA (protein, UniProt P47069 1-682)
chain: MNNSNEHRREEAGAANEQMPYNKAVKSAYADVLKDKMNREQEISLRAIKKGIYTDGGETDNYDMDKENDSAYEMFKKNLDFPLDQHNDDDDDDPYIEDNGQETDGYSDEDYTDEADKSFIEDSDSDSYDLESNSDFEENLESSGEAKKLKWRTYIFYGGLFFVFYFFGSFLMTTVKNNDLESHSSGATSSPGKSFSNLQKQVNHLYSELSKRDEKHSSELDKTVKIIVSQFEKNIKRLLPSNLVNFENDINSLTKQVETISTSMSELQRRNHKFTVENVTQWQDQLVKQLDTHLPQEIPVVINNSSSLLIIPELHNYLSALISDVIESPGIGTAGSAESRWEYDLNRYVKEILSNELQYIDKDYFIQEMNRRLQSNKQEIWEEITNRLETQQQQQQQQVQQDYSNVPQQYSSILMKRLIHQIYNSNQHQWEDDLDFATYVQGTKLLNHLTSPTWRQGSGVQPIELLTDSKQSSSTYWQCENEPGCSWAIRFKTPLYLTKISYMHGRFTNNLHIMNSAPRLISLYVKLSQTKEIKALQTLANQYGFGQHHKRDRNYIKIAKFEYRLTDSRIRQQMYLPPWFIQLKPLVRSIVFQVDENYGNKKFISLRKFIINGVTPQDLQIIENNEFPVLLGDTPEYGVTQNTDEGKRKVLLSKPPYASSSTSTKFHPASNVPSFGQDELDQ
Turning to B1, the binding entry is listed as “binds”.

The values above are taken from publication doi:10.1101/421909.
